From publication PMC4060102, “Improved Histone Deacetylase Inhibitors as Therapeutics for the Neurodegenerative Disease Friedreich's Ataxia: A New Synthetic Route” (Pharmaceuticals, 2011)

Assays:
[1] = cited from earlier work

| SMILES | central nervous system penetration [1] | Kp (in vivo) |
| --- | --- | --- |
| Nc1ccccc1NC(=O)c1ccc(CNC(=O)OCc2cccnc2)cc1 [MS-275, reference compound] | does not penetrate the central nervous system | – |
| Cc1ccc(C(=O)NCCCCCC(=O)Nc2ccccc2N)cc1 [compound 109] | – | 0.1 to 0.15 |
